# Out of some 580,000 compounds screened, about 6,100 (1.1%) were called active. The shares of active, inactive and inconclusive entries below differ from those in the screen. Calls follow the shape of the dose curve; as a rule, active = well fitted inhibition curve with a large enough effect; inconclusive = small, poorly fitted or top-dose-only effect, or another doubt; inactive = no such curve, though single readings can be large or run the other way. A potency beside an inconclusive call is a rough fit, not a confirmed value.
# Sequences of proteins named here, by UniProt entry; tags and fusion partners are left off. A change or cut given only in a name is not applied to a line headed by its entry.
# UniProt P18054: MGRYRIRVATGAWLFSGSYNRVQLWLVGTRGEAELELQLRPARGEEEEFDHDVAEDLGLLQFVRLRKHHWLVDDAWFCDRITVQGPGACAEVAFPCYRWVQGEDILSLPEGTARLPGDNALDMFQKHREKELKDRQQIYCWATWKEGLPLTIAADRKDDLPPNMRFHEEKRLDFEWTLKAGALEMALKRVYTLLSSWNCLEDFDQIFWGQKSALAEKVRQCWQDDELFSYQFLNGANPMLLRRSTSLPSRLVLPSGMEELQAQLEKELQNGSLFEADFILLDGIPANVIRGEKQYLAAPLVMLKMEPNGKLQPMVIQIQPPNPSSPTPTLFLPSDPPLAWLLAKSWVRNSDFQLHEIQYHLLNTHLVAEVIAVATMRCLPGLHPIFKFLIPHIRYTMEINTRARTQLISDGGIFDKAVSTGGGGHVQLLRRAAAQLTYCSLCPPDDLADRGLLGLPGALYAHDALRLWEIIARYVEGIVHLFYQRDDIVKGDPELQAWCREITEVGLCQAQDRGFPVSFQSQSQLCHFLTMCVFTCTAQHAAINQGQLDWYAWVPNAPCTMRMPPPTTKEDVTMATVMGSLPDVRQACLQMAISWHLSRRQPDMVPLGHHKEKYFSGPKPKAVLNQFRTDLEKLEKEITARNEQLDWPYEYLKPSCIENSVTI
# Molecular target: Polyunsaturated fatty acid lipoxygenase ALOX12 (Homo sapiens) (UniProt P18054)
# Assay: Primary qHTS assay for inhibitors of human arachidonate 12S-lipoxygenase (ALOX12): Round 2
# Settings: purified 12hLO, xylenol orange hydroperoxide absorbance; activity change, negative = inhibition: at 108 µM (top of the series) unless noted
# Method in brief: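 Hydroperoxide product was detected by ferrous iron/xylenol orange as the 573 to 405 nm absorbance ratio. Arachidonic acid at 40 uM (final) was turned over for 30 min at room temperature by 150 nM human 12hLO, pH 7.0 Hepes buffer, after 15 min compound preincubation.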
# % is scaled to controls: 0 for no effect and ±100 for the full control effect; potency is read from the fitted curve at half-maximal effect.
Compound,"activity change, negative = inhibition",Potency
COc1ccc(OC)c(CCNC(=O)c2cc3cccc4c3n2CC(C)S4)c1 (centres undefined),inactive: -24.6%,–
Cc1ccc(Cl)cc1N1CCN(C(=O)c2ccc(NS(=O)(=O)c3c(C)noc3C)cc2)CC1,inactive: 6.25%,–
COc1ccc(C(=O)NCc2nnc(SCC(=O)NC3CCCCC3)n2C)cc1,–,active: 39.8 µM
C/C(=N\Nc1nc(C)cc(-c2ccccc2)n1)c1ccc(O)cc1,inactive: 8.58%,–
COc1ccc(NC(=O)Cc2ccccc2F)cc1S(=O)(=O)N1CCCCC1,inactive: -13.2%,–
CC(C)(C)Nc1nc(Cl)nc(NCc2ccccc2)n1,–,"inconclusive: 112 µM [inhibitor, single point]"
COCCNC(=O)CCC[C@@H]1[C@H]2CCCN3CCC[C@@H](CN1Cc1ccccc1)[C@@H]23,inactive: 32%,–
COCc1cc(=O)[nH]c(SCC(=O)N2CCOCC2)n1,–,"inconclusive: 79.4 µM [inhibitor, partial curve, poor fit]"
Nc1ncnc2c1ncn2[C@@H]1O[C@H](CO)C[C@@H]1O,–,"inconclusive: 6.85 µM [inhibitor, partial curve, poor fit]"
N#Cc1cccc(NC(=O)N[C@H]2CO[C@H]3[C@@H]2OC[C@@H]3Nc2nccc(-c3cccc(F)c3)n2)c1,–,"inconclusive: 56.2 µM [inhibitor, partial curve, poor fit]"
Cc1ccc(OCC(=O)Nc2ccc3nn(-c4ccc(C)cc4)nc3c2)cc1,inconclusive: -42.6% [inhibitor],–
CC1Oc2ccc(NC(=O)c3cccs3)cc2CN(Cc2ccc(F)cc2)C1=O (centres undefined),inactive: 5.33%,–
C[Se]CC[C@H](N)C(=O)O,–,"inconclusive: 8.91 µM [inhibitor, partial curve, poor fit]"
O=C1NC[C@@H](CCC(=O)N2CCCCC2)N2C[C@@H](NC(=S)Nc3ccc(Cl)cc3)C[C@@H]12,–,"inconclusive: 50.1 µM [inhibitor, partial curve, poor fit]"
N#Cc1c(-c2ccccc2)cc2nc3ccccc3n2c1N,inactive: -8.76%,–
O=S(=O)(Nc1ccc(-c2ccc(NS(=O)(=O)c3ccccc3)cc2)cc1)c1ccccc1,–,"inconclusive: 0.891 µM [inhibitor, full curve, poor fit]"
Cc1c(Cl)cnc(NC(=O)COC(=O)Cc2coc3ccc4ccccc4c23)c1Cl,–,"inconclusive: 15.8 µM [inhibitor, full curve]"
COc1ccc(NC2C(c3ccc(OC)cc3)=Nc3ccccc3-n3nnnc32)cc1 (centres undefined),–,"inconclusive: 44.7 µM [inhibitor, partial curve, poor fit]"
O=C(CSc1ncnc2nc[nH]c12)NCc1ccc(Cl)cc1,inactive: -8.06%,–
CN(C(=O)Cc1cccc2ccccc12)c1nc2ccccc2o1,inactive: -13%,–
CN1CCN(C(C(=O)O)c2c[nH]c3cc(NC(=O)CCC(=O)O)ccc23)CC1 (centres undefined),–,"inconclusive: 50.1 µM [inhibitor, single point]"
COc1cc(SC)ccc1C(=O)Oc1ccccc1C,–,"inconclusive: 44.7 µM [inhibitor, single point]"

# Some of the entries so far, with tabs:
Compound	activity change, negative = inhibition	Potency
C[Se]CC[C@H](N)C(=O)O	–	inconclusive: 8.91 µM [inhibitor, partial curve, poor fit]
O=C1NC[C@@H](CCC(=O)N2CCCCC2)N2C[C@@H](NC(=S)Nc3ccc(Cl)cc3)C[C@@H]12	–	inconclusive: 50.1 µM [inhibitor, partial curve, poor fit]

# (cont.)

Compound,"activity change, negative = inhibition",Potency
CCN(CC)Cc1cnc2c(C(=O)Nc3ccc(OC)cc3)cnn2c1,inactive: 49.2%,–
CN(C)S(=O)(=O)c1cccc(NC(=O)COC(=O)/C=C/c2ccc3c(c2)OCO3)c1,inactive: 8.05%,–
CN(C)S(=O)(=O)c1cccc(NC(=O)c2ccc(N3CCOCC3)c([N+](=O)[O-])c2)c1,inactive: 3.66%,–
Cn1cnc(S(=O)(=O)N2CCC(C(=O)Nc3ccc(Cl)c(C(F)(F)F)c3)CC2)c1,–,"inconclusive: 89.1 µM [inhibitor, partial curve, poor fit]"
Cc1cc(N=NC(=O)c2ccccc2)ccc1O,–,"inconclusive: 79.4 µM [inhibitor, single point]"
CN(C)C(=O)N1C2CCC1CN(c1ccc(C(F)(F)F)cc1)C2,inactive: 5.34% [at 6.33 µM],–
Cc1cc2oc(C(=O)Nc3cccc4cccnc34)c(C)c2cc1C,inactive: -2.19%,–
CCc1cccc(NS(=O)(=O)c2ccc3c(c2)N(CC(=O)OC)C(=O)CS3)c1,inactive: -25.4%,–
O=c1oc2ccc(C#CC3(O)CCCCC3)cc2cc1-n1cc(C2(O)CCCCC2)nn1,–,"inconclusive: 44.7 µM [inhibitor, partial curve, poor fit]"
CN1Cc2c(cc(N3CCOCC3)nc2-c2cccc(N[S+](C)(=O)[O-])c2)C1=O,inactive: -26.1% [at 176 µM],–
CCSc1ccccc1C(=O)NCc1cccnc1,–,"inconclusive: 44.7 µM [inhibitor, partial curve, poor fit]"
COc1ccc(CCNC(=O)CS(=O)(=O)Cc2nc(-c3cccc(Cl)c3)oc2C)cc1OC,–,"inconclusive: 50.1 µM [inhibitor, partial curve, poor fit]"
O=C(C[C@H]1NC(=O)c2ccccc2NC1=O)Nc1cccc2[nH]ccc12,inactive: 13%,–
COc1ccc(-c2cc(C(=O)NCCc3ccccc3)c3c(-c4ccc(Cl)cc4)[nH]nc3n2)cc1,inactive: -32.4%,–
O=C(CN1C(=O)N/C(=C\c2ccccc2OCc2ccc(C(=O)O)cc2)C1=O)Nc1ccccc1F,inactive: 0.851%,–
Cc1ccc(C(=O)NC(CC(=O)O)c2cccs2)o1 (centres undefined),–,"inconclusive: 39.8 µM [inhibitor, partial curve, poor fit]"
O=C(CCS(=O)(=O)c1cc(Br)cc2c1N(C(=O)C1CC1)CC2)N1CCN(c2cccc(C(F)(F)F)c2)CC1,–,"inconclusive: 4.47 µM [inhibitor, full curve, poor fit]"
O=C1Nc2ccccc2C(=O)N2[C@H](c3ccccc3)[C@@H]3C(=O)N(Cc4ccccc4)C(=O)[C@@H]3[C@H]12,–,"inconclusive: 50.1 µM [inhibitor, partial curve, poor fit]"
O=C(O)CCC(=O)Nc1ccc(SSc2ccc(NC(=O)CCC(=O)O)cc2)cc1,–,"inconclusive: 1.78 µM [inhibitor, full curve, poor fit]"
CCc1cc(=O)oc2cc(OCC(=O)NCCCN3CCCC3=O)ccc12,inactive: 9.51%,–
Cc1ccc(-c2ccc(/C=C/C(=O)c3ccccc3)o2)cc1Cl,–,active: 11.2 µM
CCOc1cc(N2CCOCC2)c(OCC)cc1NS(=O)(=O)c1cc(NC(C)=O)ccc1OC,–,"inconclusive: 25.1 µM [inhibitor, partial curve, poor fit]"

# From PubChem BioAssay AID1671190 (National Center for Advancing Translational Sciences (NCATS), 2021)
